# Laboratory results from the supplement of paper PMC3334620.
# The full ranking holds about 33,000 sequences; the median of “E-score (-0.5 to 0.5)” is about -0.0059, and the highest 2% start at about 0.26. The list shows a part of the results.
# Biological target: T1, Cin5 (UniProt P40917)
# T1 sequence: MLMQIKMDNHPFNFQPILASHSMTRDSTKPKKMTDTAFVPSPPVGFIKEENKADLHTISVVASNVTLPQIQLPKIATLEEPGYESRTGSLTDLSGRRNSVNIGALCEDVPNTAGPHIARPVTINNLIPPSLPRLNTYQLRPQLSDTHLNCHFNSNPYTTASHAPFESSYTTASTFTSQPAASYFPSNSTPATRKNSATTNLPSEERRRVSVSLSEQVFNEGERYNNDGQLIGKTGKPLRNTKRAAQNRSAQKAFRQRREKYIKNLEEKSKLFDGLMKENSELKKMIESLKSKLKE
# Assay: PBM E-score (8-mer binding enrichment) (E-score (-0.5 to 0.5)); higher = stronger / more preferred TF binding
# Details: protein concentration: 100 nM; construct: GST-full length
# Procedure, shortened: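 E-scores (a modified Wilcoxon-Mann-Whitney statistic) were assigned by the Universal PBM Analysis Suite to every ungapped eight-base word pooled with its reverse complement. The input came from universal all-10-mer Agilent arrays made double-stranded by primer extension and probed with GST-tagged yeast transcription factors at about 100-200 nM. Fluorescent anti-GST detected bound protein, and masliner normalised the scans.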
row,Sequence,PBM E-score
1,TAACTGCA,0.181
2,CTACAATA,0.137
3,CGCTCGTA,-0.0211
4,GCTACAAC,-0.0423
5,TAGCGGGA,-0.152
6,AGTCGCTG,-0.0219
7,TAAGTGGA,0.119
8,ATTCAACC,-0.0256
9,ACAGTAAG,0.112
10,ATCTCCAA,0.118
11,CCGGAAGC,0.0511
12,CGGTCTCA,-0.253
13,GTCCCTCA,-0.0572
14,AGTTAAAT,-0.078
15,GTCAAGCA,-0.272
16,GGGCATGA,-0.168
17,ACGAGGCT,0.034
18,CTAATGGA,-0.025
19,CTATATTC,0.0546
20,CCCCGATC,-0.00403
21,TAGGGGGA,-0.322
22,TTTCAAAA,0.0682

row,Sequence,PBM E-score
1,AACTGGTA,-0.00478
2,TCAGCAGA,-0.0484
3,AGTACACT,-0.0432
4,GTTCCGAA,0.225
5,AACGAGGT,-0.0717
6,GTGTTTTA,0.0913
7,CCTCCGGA,-0.136
8,ATTAACCA,0.0718
9,CCGAGCAG,-0.165
10,AACACCAG,-0.0996
11,AGGGGGAC,-0.409
12,ACCGCTTC,-0.186
13,CCAGGTGA,-0.0892
14,GTATCTTA,0.251
15,CCAAATAA,0.166
16,ATGGTATG,0.043
17,AAATCAAG,0.164
18,ACATGACA,0.0953
19,ACCTAACC,0.213
20,CCAATCTC,0.139
21,ACCCAACC,0.00819
22,TCGGCAGA,-0.0269

row,Sequence,PBM E-score
1,AAGAACTT,-0.0497
2,AGGTGCCA,-0.0425
3,CTTGATGC,-0.0757
4,AGATGGAG,0.0972
5,GAAAAAAC,0.0376
6,CTTTCTCA,0.0938
7,ATAATGAT,0.241
8,GCGGTAGC,-0.00413
9,ATACCACA,0.126
10,ATACGGTA,0.086
11,CACCTGGC,-0.139
12,GAGTAGGC,-0.0301
13,CTTCGTTC,-0.0885
14,CGAGACCC,-0.0551
15,CGTGTTCC,0.02
16,GCGTCTCC,-0.128
17,GAGACGAA,0.0297
18,ACCGGGAA,0.15
19,AGGGGTAC,-0.103
20,CTATTCAA,0.185
21,GTGACACA,0.096
22,GGGAGTAA,-0.0267

row,Sequence,PBM E-score
1,AGCTTGGC,-0.165
2,ACTCATTG,-0.0555
3,AGCACGCG,-0.0209
4,CAGGCCAC,-0.118
5,AGTAGATG,0.0868
6,CCGCTAAG,-0.0258
7,CGGGCCCG,0.188
8,AGCTCCGA,-0.0183
9,CAGACGCG,-0.152
10,GCCTTTGA,-0.0143
11,GTAGTTAA,0.0886
12,ACTTAGGA,-0.229
13,AGAGCTGG,-0.17
14,GGGGCCAA,-0.0517
15,GACTGTAA,0.0919
16,GGAGCCCA,-0.254
17,TACGGCTA,-0.0986
18,AGCCTTCC,-0.211
19,ATCGGTTC,0.0536
20,CAGATGAG,0.0638

# Some values from the entries so far:
# ACTCATTG | PBM E-score: -0.0555
# TACGGCTA | PBM E-score: -0.0986
